Some of these results come from one statement about several compounds together. No end group written: not given here.
Test system: HSV-1 (Pal, 17, Hfm, F, KOS, and MP) and HSV-2 (G) strains
Experiment: Entry of HSV-1 and HSV-2 strains into 3-OST-3 expressing CHO Ig8 reporter cells
Format: cell-based, herpes simplex virus
Details: 0.5 mM, 60 min pre-incubation, 25 pfu/cell, 6 hr, ONPG

Sequence | blockage of entry of various HSV-1 strains
LRSRTKIIRIRH [G1, LRSRTKIIRIRH] | 70-80%
MPRRRRIRRRQK [G2, MPRRRRIRRRQK] | 70-80%
